# Results reported in patent publication EP1672365A1, “Means and methods for determining and/or influencing cellular transportation” (priority 2004, dated 2006).
# Some results were stated once for a whole list of compounds, not compound by compound.
# Target: T1, Bcrp1 (Mus musculus, UniProt Q7TMS5)
# T1 sequence (Q7TMS5 1-657): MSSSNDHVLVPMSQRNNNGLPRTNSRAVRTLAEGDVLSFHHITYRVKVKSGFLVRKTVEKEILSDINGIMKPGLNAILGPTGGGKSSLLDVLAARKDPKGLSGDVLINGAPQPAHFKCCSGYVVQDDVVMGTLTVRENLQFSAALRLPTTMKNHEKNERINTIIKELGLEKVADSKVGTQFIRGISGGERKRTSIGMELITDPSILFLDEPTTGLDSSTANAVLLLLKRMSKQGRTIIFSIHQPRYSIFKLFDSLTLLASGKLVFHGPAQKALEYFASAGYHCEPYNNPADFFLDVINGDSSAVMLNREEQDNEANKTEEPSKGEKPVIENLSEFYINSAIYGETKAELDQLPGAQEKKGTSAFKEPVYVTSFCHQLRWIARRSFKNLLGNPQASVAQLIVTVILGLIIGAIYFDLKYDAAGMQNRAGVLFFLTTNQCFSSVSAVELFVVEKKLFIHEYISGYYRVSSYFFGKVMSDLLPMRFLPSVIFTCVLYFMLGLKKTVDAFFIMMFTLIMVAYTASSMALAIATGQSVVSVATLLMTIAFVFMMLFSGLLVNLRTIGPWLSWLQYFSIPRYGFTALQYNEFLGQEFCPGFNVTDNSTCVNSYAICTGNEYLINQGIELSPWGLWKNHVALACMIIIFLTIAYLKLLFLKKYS
# Test: Milk secretion of radiolabelled compounds after intravenous administration to lactating wild-type and Bcrp1-/- mice
# Assay type: in vivo
# Parameters: Bcrp1 was detected primarily in the apical membrane of alveolar epithelial cells; from tissue; host or cells: mammary gland of lactating wild-type mice (Bcrp1-/- mice as control)
# Conditions: lactating wild-type vs Bcrp1-/- mice, 1 mg kg-1 intravenously, 30 min
smiles,measurement,value
Nc1nc2c(ncn2COCCO)c(=O)[nH]1 [acyclovir],identification as Bcrp1 substrate,novel Bcrp1 substrates
